# Measured values as given in PubChem BioAssay AID1347423 (Functional Genomics Laboratory (NCATS/FGL), 2020).
# Hit rate of the full screen: of about 52,000 sequences, about 210 (0.4%) were called active.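 The calls were made as follows: active = gene whose silencing raises cell survival under the drug, median off-target-corrected z-score across its silencing RNAs 2 or more; inactive = the rest.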 The list shows a part of the results.
# Assay: Resistance to Poly (ADP-Ribose) Polymerase inhibitor: Gene Identification via Genome-wide siRNA Screen
# Conditions: mouse BRCA2 R2336H ES cells, olaparib, CellTiter-Glo viability; stronger effect = higher value
# From the text: The role of Poly (ADP-Ribose) Polymerase (PARP) proteins in DNA repair has been elegantly utilized for the synthetic lethality-based treatment of BRCA-deficient tumors by PARP inhibitors. PARP inhibitors are now being used for treatment of BRCA-deficient breast and ovarian cancers. […] While several mechanisms of drug resistance have been identified, majority of these tumors develop drug resistance due to unknown causes. To identified novel regulators of chemo-resistance in BRCA2-mutated cells, we performed a genome wide siRNA library screen. We have found ES cells expressing a hypomorphic allele of BRCA2 to be hypersensitive to PAPP inhibitors (such as olaparib). We used ES cells expressing a mutant allele of BRCA2 that has a single amino acid substitution at position 2336 (arginine to histidine, R2336H). The screen was conducted using an Ambion (Thermo) Silencer Mouse Genome siRNA collection. The library targets 17,575 mouse genes with 3 siRNAs per gene. TET2 (E130014J05Rik) was identified as a top candidate.
# Transfections were performed in 384 well plates (Corning 3707). Plates were coated with 0.1% gelatin in H2O overnight at ambient temperature. Gelatin solution was aspirated (BioTek EL406) and siRNAs were printed using a Bravo VPrep liquid handler integrated within a BioCel automation platform (Agilent). Cell viability was measured using CellTiter Glo (Promega). For transfections, […] of serum free media containing Lipofectamine RNAiMax […] was added to wells containing siRNA (0.8pmol). Lipid and siRNA were allowed to complex for 45 min at ambient temperature before addition of 1000 cells in DMEM, 30% FBS to yield final transfection mixtures containing 20 nM siRNA in DMEM, 15% FBS. PARPi (olaparib, AZD2281) was added 48 h post-transfection (500 nM) and viability (CellTiter Glo, Promega) was assayed 72 h later on a PerkinElmer Envision 2104 Multilabel plate reader. Ambion Silencer Select Negative Control #2 was incorporated on all screening plates (16 wells) and the median negative control value on each plate was used for normalization. An siRNA targeting Trp53 was used as a positive control. This control yielded a median protective effect of ~1.9 fold versus negative control throughout the screen. The median absolute deviation (MAD) based z-score was calculated for each siRNA. Genes were then ranked by taking the median value for all siRNAs tested against a given gene. Scores were also adjusted for seed-based off-target effects to help deprioritize likely false positives.
row,Sequence,z-score
1,GGAGGUUGUGAUCUUGAAATT against 4930451A13Rik,inactive: -0.069
2,GGCUAAGUUCUAUAGUAAATT against Crkl,inactive: -0.638
3,GGACAAGAGGACUCAGAAATT against Camk1,inactive: 0.326
4,GCUUCAGAACACGACGACCTT against Sepm,inactive: 0.877
5,GGUGUCUGAUGAUGAAUAUTT against Cnnm3,inactive: -2.55
6,GGGUCUGGUGAAGAACCUUTT against Akr1e1,inactive: 1.08
7,GGUUAACUUCUGUUCCUGATT against 2310034L04Rik,inactive: -0.0336
8,GCUACUGCCGGAAUUUGGUTT against Tiam1,inactive: -0.113
9,GGACAAGUUAACCAUUUUGTT against Asz1,inactive: 0.806
10,GGCUCAAUGAGGGAUAAAATT against Qk,inactive: -0.303
11,GGCCUUGUAACCAACUCCUTT against Sh3bgrl3,inactive: 0.0495
12,GAAAUAGAGAUGCCUCUCUTT against Olfr1161,inactive: -0.926
13,CCAGGCAGUAUAAUCAUGUTT against Col4a5,inactive: 0.545
14,GGGAAGAAAGGAUGGGAAATT against Fev,inactive: -2.24
15,GGCAGAAGAACUUUUCCAGTT against 1700028N11Rik,inactive: 0.08
16,GGAGAAGCCAAAAGAAUGCTT against Xrn2,inactive: 2.28
17,GGUGUUCAAUGCUCACUAUTT against Zfp312,inactive: 0.356
18,CGGGCUGAAGCUCAUUUCUTT against Gpd1,inactive: 0.268
19,GGCAAUGUAGUGAACAAACTT against Gtpbp1,inactive: -1.22
20,GGACUUAAUCAACCUAACCTT against Tmem23,inactive: -0.143
21,CCAGGAUGAAAAGUCGUUUTT against Slco2a1,inactive: -0.076
22,GGAAAACCUUUGUCAAAAATT against P2ry13,inactive: 1.98

row,Sequence,z-score
1,CGUGAACAGCUUUAAGGUGTT against Usp27x,inactive: -0.931
2,GGCUUUAAUCCUAACCCUATT against AI854635,inactive: -0.607
3,GGUGAAGUGAGCCUUUGUGTT against Cfhl1,inactive: -2.42
4,CCGUCCAAAAGGACUUAUCTT against Nap1l2,inactive: 0.343
5,GGUUAUGAAUCUUUUCCCATT against 1810044O22Rik,inactive: -0.562
6,GCUAAGAGGUUGUAGUUUUTT against Tbpl1,inactive: 0.193
7,CCACGACAUUCCAGAAAGGTT against Ian6,inactive: 0.192
8,GGUUUCUGACCUCAAUAGUTT against Cklfsf6,inactive: 0.0838
9,GCUUCGGUCAAAAGUGAGUTT against Glipr1,inactive: -1.09
10,GGAGGAGUGUUGAACUAAATT against Ttc14,inactive: 0.37
11,GGAAGAGGAUAGGCAGGAATT against Gfer,inactive: -0.273
12,GGAAGACUUUGAAGAAAAATT against Olfr983,inactive: -0.56
13,CCUGUUGAUUAAUUGAAGCTT against E2f2,inactive: 1.45
14,CCCUAAAACCAAAUGUACATT against E130014J05Rik,active: 6.23
15,GGAUACGAUCCAGUGUGCCTT against Lyzl4,inactive: 0.308
16,GGUUAAGAGCGUACGUUUUTT against BC054438,inactive: 0.0663
17,GGUGCUCAAUAAAUGGAAUTT against 6720485C15Rik,inactive: -0.301
18,AGCCGAUCCUGUGCCUGUUTT against BC048355,inactive: -2.64
19,CCCAGAUGGAUUUUUGCAUTT against 1700001E04Rik,inactive: 1.37
20,GGGCUUAAUGGUAAAAUGATT against Slc40a1,inactive: 0.291
21,CCUAGUGAAUCCUCUCGUATT against 4930579C15Rik,inactive: -0.933
22,CCAGUGCGUCACUCAGUAATT against 1700025E21Rik,inactive: 0.668

row,Sequence,z-score
1,GGUGGAAGAGGUCAAAUAATT against Denr,inactive: -0.65
2,GGAUUCGGGAAGGUGAGAUTT against Cep2,inactive: -0.667
3,GGGCCUGGAAAACAUUGACTT against Ndufa1,inactive: 0.852
4,GGCAAGGAUAAGACAGUAGTT against Hs3st3b,inactive: -1.12
5,GGCUCUACUGGUGAAGAGATT against Zfp459,inactive: -0.337
6,CAUAAAGGUGGCACUAAUATT against 1500041B16Rik,inactive: -0.444
7,GGAGGACAUUGAGAAGGAATT against Tnni3,inactive: -0.149
8,GGCCAUUGCUGGUUCUGCATT against 4930412M03Rik,inactive: -1.25
9,GCUUUGGUCGCUCUCGUGATT against 1700055O19Rik,inactive: -0.385
10,GCAAUCUAUAAGAGGUACATT against Axin2,inactive: -0.343
11,GGAACCAAUCUGUCUCUCCTT against Cbfb,inactive: -0.946
12,CCGUUGACCUGAAAAGGAATT against Clic4,inactive: 0.151
13,GCCAUUGUGACUGGAGACATT against Olfr804,inactive: 0.135
14,GGACUUCAUCAACAACAUCTT against 2510027N19Rik,inactive: 0.824
15,GGAGGUCAUUGUAUGGAACTT against 1110001C20Rik,inactive: 1.17
16,GGAUCUUCCUGGAUGCCAATT against Hps1,inactive: -0.0393
17,GGUAUAAAAUGGAAAACUCTT against Gpr23,inactive: 1.38
18,GGAAGUUUGCUCAAUCUCATT against Jarid2,inactive: 0.853
19,GGCUGUUACUCUCUCUCUCTT against D730001G18Rik,inactive: -0.198
20,GGGAAGAGCCAUCUCUUUUTT against Olfr140,inactive: -0.466
21,CGGUUGGUGGCAAUAUCCUTT against Olfr234,inactive: -0.18
22,GGAAGGGAUGCUCAUAGUATT against Hgfac,inactive: 2.69

# In another format: results already given.
row	Sequence	z-score
4	GGCAAGGAUAAGACAGUAGTT against Hs3st3b	inactive: -1.12
9	GCUUUGGUCGCUCUCGUGATT against 1700055O19Rik	inactive: -0.385
15	GGAGGUCAUUGUAUGGAACTT against 1110001C20Rik	inactive: 1.17
21	CGGUUGGUGGCAAUAUCCUTT against Olfr234	inactive: -0.18
22	GGAAGGGAUGCUCAUAGUATT against Hgfac	inactive: 2.69
